Test results as given in patent US6406709B1, “Method for inhibiting nematocyst discharge” (Nidaria Technology Ltd., priority 1997, dated 2002).

Tested on: nematocysts of jellyfish or sea anemone
Settings: 0.2% in glycerol

## CN(C)CCOC(c1ccccc1)c1ccccc1.Cl [diphenhydramine, diphenhydramine hydrochloride]
  inhibition of nematocyst discharge into human skin samples: effective at inhibiting nematocyst discharge
